The list shows a part of the results.
Experiments:
Test in all cases: log2 fold change, soluble protein after heating vs DMSO (PISA); higher = thermal stabilisation; K562 lysate, 10 uM; active = over 0.2 and 3.5 SD of the protein, either way, in both replicates (recomputed)
[1] = compound: C=CC(=O)N1CCC[C@@H](n2nc(-c3ccc(Oc4ccccc4)cc3)c3c(N)ncnc32)C1 [ibrutinib]
Outline: (§1)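 K562 pellets were dounce-homogenised in PBS pH 7.4 with 1 mM MgCl2, and the crude extract at 1 mg/mL protein was treated with 10 μM compound for 30 min. Aliquots were heated for 3 min across 48°C-58°C, pooled, and brought to 0.5% NP-40 at 4°C; soluble protein was the supernatant after 21,000xg for 90 min. Soluble protein was quantified by TMTpro 16plex LC-MS/MS with channel sums equalised, and reported as log2 fold change in thermal stability against DMSO controls, with values from duplicates.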

Chains of the proteins cited; added tags and fusions are not shown. Lines headed by an entry give the natural chain unless they say otherwise; changes in a name come on top.
UniProt O95096: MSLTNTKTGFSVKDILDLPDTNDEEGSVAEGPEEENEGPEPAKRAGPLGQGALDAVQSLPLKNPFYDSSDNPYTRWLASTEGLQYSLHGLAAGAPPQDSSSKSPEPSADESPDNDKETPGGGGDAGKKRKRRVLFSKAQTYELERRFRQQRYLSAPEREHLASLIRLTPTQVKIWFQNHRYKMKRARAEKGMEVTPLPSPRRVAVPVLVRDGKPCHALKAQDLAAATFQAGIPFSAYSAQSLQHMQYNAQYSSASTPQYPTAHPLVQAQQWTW
UniProt P52848: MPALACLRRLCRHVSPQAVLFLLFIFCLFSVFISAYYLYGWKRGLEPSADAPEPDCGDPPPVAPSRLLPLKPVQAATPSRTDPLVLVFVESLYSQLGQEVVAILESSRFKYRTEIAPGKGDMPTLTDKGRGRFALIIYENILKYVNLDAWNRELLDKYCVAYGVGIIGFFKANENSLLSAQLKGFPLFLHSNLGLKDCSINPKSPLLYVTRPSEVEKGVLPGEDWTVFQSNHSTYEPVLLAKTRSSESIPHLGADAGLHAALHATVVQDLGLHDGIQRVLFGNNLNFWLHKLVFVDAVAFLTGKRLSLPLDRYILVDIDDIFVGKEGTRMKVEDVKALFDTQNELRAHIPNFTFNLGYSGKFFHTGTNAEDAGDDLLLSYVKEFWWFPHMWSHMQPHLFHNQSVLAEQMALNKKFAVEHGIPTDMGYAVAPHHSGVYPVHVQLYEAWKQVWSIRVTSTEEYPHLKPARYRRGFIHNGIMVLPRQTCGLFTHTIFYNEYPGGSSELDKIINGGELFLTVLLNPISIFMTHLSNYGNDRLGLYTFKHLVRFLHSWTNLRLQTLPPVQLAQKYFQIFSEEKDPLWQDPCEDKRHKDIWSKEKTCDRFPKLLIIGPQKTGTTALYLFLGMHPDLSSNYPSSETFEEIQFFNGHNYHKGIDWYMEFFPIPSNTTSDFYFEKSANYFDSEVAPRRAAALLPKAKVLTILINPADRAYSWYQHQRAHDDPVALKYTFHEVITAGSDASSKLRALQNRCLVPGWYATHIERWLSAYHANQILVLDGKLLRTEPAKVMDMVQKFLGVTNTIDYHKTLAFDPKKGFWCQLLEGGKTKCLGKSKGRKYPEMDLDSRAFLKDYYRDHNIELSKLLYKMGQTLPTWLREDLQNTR
UniProt Q6NW34: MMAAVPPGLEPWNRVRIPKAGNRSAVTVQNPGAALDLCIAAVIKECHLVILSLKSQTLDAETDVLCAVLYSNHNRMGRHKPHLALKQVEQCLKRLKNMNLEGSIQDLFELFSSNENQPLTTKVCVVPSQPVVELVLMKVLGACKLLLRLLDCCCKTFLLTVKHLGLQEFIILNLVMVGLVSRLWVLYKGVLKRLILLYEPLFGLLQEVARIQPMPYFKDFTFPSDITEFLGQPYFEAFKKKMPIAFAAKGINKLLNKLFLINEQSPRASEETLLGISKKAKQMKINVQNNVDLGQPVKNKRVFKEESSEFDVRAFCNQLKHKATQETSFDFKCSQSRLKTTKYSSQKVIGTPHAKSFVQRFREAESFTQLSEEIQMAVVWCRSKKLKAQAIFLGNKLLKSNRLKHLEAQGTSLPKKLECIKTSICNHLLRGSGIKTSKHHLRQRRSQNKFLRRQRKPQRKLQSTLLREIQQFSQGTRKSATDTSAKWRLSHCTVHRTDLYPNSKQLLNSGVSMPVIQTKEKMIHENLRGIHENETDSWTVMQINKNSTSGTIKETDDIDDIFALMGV
UniProt P25963: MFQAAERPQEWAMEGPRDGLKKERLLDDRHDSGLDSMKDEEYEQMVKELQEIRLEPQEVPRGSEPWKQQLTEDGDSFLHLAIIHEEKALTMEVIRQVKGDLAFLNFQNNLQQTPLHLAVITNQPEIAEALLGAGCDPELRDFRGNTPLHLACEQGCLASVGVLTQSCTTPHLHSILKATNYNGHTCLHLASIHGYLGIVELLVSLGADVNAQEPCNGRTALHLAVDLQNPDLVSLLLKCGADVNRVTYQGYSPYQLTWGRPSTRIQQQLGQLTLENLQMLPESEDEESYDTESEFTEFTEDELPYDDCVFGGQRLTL
UniProt Q9UGV2: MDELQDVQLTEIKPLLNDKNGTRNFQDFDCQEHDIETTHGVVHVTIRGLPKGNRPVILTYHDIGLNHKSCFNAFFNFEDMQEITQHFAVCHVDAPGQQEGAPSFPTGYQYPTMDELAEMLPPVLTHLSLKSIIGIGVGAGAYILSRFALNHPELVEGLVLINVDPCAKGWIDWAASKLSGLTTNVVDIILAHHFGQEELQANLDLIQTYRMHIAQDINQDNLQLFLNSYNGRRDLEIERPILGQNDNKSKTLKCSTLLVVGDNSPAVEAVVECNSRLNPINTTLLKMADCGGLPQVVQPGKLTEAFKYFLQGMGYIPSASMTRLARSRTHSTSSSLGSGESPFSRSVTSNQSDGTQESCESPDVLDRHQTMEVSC
UniProt Q0ZGT2: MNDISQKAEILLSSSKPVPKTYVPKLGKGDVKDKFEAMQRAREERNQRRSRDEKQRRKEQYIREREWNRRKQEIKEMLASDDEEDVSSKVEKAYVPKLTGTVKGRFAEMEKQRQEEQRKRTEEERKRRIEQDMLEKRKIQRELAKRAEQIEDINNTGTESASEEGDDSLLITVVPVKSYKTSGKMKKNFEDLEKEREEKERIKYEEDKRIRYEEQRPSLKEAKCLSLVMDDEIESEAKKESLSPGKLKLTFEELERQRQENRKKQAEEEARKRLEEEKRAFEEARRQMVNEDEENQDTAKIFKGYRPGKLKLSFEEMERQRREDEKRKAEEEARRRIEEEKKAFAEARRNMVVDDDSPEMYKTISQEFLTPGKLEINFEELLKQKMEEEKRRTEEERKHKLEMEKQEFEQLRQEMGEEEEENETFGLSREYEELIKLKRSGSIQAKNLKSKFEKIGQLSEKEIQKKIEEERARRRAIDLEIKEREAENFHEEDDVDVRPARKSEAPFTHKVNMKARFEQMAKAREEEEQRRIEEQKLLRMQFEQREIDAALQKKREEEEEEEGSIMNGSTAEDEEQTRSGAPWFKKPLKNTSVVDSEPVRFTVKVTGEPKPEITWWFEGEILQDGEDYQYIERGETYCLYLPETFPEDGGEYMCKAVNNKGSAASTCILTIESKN
UniProt Q7RTR2: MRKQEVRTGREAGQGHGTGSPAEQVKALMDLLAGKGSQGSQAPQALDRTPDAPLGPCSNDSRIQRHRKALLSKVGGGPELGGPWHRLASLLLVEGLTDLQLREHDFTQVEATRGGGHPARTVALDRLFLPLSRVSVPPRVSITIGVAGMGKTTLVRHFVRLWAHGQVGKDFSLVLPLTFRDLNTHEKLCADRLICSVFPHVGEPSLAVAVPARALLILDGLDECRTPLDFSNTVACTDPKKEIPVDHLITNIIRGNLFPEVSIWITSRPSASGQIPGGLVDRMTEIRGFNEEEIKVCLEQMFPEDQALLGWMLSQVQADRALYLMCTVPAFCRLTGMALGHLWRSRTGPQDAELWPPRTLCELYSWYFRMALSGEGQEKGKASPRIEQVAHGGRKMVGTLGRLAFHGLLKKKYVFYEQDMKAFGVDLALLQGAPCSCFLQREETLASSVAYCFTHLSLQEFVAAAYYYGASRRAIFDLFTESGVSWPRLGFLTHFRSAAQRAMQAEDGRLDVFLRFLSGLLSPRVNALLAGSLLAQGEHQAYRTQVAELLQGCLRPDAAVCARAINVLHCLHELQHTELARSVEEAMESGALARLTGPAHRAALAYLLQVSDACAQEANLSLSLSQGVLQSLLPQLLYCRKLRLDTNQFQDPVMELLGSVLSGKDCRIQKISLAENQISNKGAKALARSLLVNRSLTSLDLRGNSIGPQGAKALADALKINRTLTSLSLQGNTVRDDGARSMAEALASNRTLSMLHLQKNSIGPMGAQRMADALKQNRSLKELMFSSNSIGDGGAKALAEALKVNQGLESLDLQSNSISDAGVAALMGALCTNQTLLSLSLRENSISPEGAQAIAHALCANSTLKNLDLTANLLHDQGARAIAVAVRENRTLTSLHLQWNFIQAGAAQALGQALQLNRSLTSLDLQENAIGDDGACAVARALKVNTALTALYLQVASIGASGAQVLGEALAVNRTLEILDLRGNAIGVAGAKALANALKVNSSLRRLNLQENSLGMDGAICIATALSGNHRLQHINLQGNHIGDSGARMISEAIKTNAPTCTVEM
UniProt Q7RTP0: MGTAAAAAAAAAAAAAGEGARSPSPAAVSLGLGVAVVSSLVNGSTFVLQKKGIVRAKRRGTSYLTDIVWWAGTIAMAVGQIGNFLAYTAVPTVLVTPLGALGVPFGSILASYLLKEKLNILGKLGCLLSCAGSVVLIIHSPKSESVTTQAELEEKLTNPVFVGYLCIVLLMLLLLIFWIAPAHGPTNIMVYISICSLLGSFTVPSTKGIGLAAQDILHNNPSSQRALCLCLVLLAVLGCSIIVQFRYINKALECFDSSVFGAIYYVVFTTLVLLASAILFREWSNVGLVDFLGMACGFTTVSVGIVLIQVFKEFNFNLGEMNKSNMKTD
UniProt Q9BT67: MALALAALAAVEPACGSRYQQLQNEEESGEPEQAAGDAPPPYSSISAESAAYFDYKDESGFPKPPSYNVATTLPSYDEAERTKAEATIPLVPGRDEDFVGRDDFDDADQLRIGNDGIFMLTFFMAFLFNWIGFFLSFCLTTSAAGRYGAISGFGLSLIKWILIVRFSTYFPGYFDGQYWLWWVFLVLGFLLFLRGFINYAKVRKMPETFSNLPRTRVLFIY
UniProt Q9NVZ3: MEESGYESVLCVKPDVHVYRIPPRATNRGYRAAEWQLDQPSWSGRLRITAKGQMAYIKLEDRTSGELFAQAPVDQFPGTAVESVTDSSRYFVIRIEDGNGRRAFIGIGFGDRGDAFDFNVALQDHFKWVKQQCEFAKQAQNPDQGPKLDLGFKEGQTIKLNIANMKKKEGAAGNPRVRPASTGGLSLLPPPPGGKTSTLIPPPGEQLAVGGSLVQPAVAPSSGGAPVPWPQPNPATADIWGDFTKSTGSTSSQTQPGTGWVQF
UniProt P48681: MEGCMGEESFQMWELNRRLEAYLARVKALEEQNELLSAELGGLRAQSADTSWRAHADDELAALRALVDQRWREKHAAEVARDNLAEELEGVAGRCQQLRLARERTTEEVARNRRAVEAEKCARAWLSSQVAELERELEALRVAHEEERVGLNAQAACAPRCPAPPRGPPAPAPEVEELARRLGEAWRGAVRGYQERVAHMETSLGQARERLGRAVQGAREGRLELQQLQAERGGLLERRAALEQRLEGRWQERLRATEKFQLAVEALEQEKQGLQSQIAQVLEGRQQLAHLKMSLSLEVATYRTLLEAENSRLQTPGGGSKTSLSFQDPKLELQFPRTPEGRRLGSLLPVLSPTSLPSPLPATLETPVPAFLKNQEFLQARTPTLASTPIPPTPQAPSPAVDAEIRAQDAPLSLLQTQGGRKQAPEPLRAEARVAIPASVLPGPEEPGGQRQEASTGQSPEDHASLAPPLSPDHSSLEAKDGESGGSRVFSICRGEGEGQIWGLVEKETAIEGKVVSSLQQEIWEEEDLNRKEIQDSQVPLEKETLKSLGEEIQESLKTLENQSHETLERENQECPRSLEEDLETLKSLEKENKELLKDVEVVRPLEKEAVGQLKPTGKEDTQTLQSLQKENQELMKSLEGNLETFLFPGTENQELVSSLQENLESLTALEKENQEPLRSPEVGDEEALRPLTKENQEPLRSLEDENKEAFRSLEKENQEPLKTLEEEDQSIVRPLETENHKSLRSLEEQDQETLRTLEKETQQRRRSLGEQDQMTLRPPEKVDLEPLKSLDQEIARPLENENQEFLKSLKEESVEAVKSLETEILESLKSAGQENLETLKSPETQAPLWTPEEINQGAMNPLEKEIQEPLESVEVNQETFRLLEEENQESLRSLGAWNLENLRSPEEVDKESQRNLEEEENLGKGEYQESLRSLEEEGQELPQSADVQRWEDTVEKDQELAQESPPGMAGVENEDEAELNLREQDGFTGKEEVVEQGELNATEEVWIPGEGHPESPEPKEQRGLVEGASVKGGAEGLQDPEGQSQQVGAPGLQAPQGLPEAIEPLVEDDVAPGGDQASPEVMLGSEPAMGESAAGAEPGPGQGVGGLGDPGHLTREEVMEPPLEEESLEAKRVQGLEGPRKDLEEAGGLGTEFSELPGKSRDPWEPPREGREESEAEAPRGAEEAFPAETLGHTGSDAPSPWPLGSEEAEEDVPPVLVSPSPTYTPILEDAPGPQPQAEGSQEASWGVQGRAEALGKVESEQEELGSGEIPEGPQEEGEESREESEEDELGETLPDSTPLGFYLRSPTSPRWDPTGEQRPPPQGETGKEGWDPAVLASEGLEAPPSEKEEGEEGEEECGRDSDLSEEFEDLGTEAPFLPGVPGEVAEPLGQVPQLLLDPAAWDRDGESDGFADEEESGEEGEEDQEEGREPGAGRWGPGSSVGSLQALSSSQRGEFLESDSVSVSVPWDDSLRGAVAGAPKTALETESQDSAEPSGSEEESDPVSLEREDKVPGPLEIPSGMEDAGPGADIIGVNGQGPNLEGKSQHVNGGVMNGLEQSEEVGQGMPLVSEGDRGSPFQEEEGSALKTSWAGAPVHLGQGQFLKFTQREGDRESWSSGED

[2] = compound: CC(=O)c1cnc2ccc(-c3cc(Cl)c(O)c(Cl)c3)nc2c1N[C@H]1CC[C@H](CN(C)C)CC1
Outline: as §1

[3] = compound: CC(C)(C)Cn1c(N)nc2ccc(-c3[nH]c(C(C)(C)C)nc3-c3ccc(F)cc3)nc21 [ralimetinib]
Outline: as §1

[4] = compound: CC(C)(O)CC(=O)NCCn1ccc2ncnc(Nc3ccc(Oc4cccc(C(F)(F)F)c4)c(Cl)c3)c21
Outline: as §1

[5] = compound: CC(C)C1=C2N=C(C=C(N2N=C1)NCC3=CC=CC=C3)NCCCCCCN
Outline: as §1

[6] = compound: CC1=C(C=C(C=C1)NC(=O)C2=CC(=CC=C2)C(C)(C)C#N)NC3=CC4=C(C=C3)N=CN(C4=O)C
Outline: as §1

[7] = compound: CC1=C(C=C(C=C1)NC(=O)C2=CC(=CC=C2)N(C)C)NC(=O)C3=CC=C(C=C3)O
Outline: as §1

[8] = compound: CC1=CC=C(C=C1)SC2=C3C=C(SC3=CN=C2)C(=O)N
Outline: as §1

[9] = compound: CCCS(=O)(=O)Nc1ccc(F)c(C(=O)c2c[nH]c3ncc(-c4ccc(Cl)cc4)cc23)c1F [vemurafenib]
Outline: as §1

[10] = compound: CCCS(=O)(=O)Nc1ccc(F)c(C(=O)c2c[nH]c3ncc(Cl)cc23)c1F
Outline: as §1

[11] = compound: CCN(CCCOc1ccc2c(Nc3cc(CC(=O)Nc4cccc(F)c4)[nH]n3)ncnc2c1)CCOP(=O)(O)O [barasertib]
Outline: as §1

[12] = compound: CC[C@@H]1C(=O)N(C)c2cnc(Nc3ccc(C(=O)NC4CCN(C)CC4)cc3OC)nc2N1C1CCCC1
Outline: as §1

[13] = compound: CC[C@@H]1C(=O)N(C)c2cnc(Nc3ccc(C(=O)N[C@H]4CC[C@H](N5CCN(CC6CC6)CC5)CC4)cc3OC)nc2N1C(C)C [volasertib]
Outline: as §1

[14] = compound: CCn1c(C(=O)N(C2CC2)C2CC2)cc2c3c(ncn3C)c(Nc3cc(C)n(C)n3)nc21
Outline: as §1

[15] = compound: CCn1cc(-c2ccnc3[nH]c(-c4cccc(CN(C)C)c4)cc23)c(-c2ccc(NC(=O)N(C)C)cc2)n1
Outline: as §1

[16] = compound: CN1CCC(CNc2ccc3ncc(-c4cccc(OC(F)(F)F)c4)n3n2)CC1
Outline: as §1

[17] = compound: CN1CCN(c2nc(C3=C(c4c[nH]c5ccccc45)C(=O)NC3=O)c3ccccc3n2)CC1 [sotrastaurin]
Outline: as §1

[18] = compound: CC1=C(C(CC(=O)N1)C2=CC=C(C=C2)C(F)(F)F)C(=O)NC3=C(C=C4C(=C3)C=NN4)F
Outline: as §1

[19] = compound: CC1=C(C2=C(C=C1)C(=O)C3=CC=CC=C3N2CCCN)C
Outline: as §1

[20] = compound: CN1CCN(CCOc2cc(OC3CCOCC3)c3c(Nc4c(Cl)ccc5c4OCO5)ncnc3c2)CC1 [saracatinib]
Outline: as §1

Measured: log2 fold change

NKX2-2 (UniProt O95096)
inactive: [1] 0.147 | [2] -0.1 | [3] -0.006 | [4] -0.391 | [5] 0.031 | [6] 0.253 | [7] -0.062 | [8] -0.176 | [9] 0.169 | [10] 0.004 | [11] 0.066 | [12] 0.189 | [13] 0.028 | [14] -0.374 | [15] -0.534 | [16] 0.214 | [17] -0.072

NDUFAB1 (UniProt O14561)
inactive: [1] 0.026 | [2] -0.117 | [3] -0.008 | [4] -0.036 | [5] 0.005 | [18] -0.013 | [19] 0.101 | [6] 0.139 | [7] -0.012 | [8] 0.087 | [9] 0.056 | [10] 0.029 | [11] 0.019 | [12] 0.089 | [13] 0.012 | [14] 0.08 | [15] -0.096 | [16] 0.006 | [20] -0.03 | [17] -0.296

NDST1 (UniProt P52848)
inactive: [1] 0.131 | [2] -0.128 | [3] 0.004 | [4] 0.009 | [5] -0.001 | [18] 0.001 | [19] 0.005 | [6] 0.025 | [7] -0.01 | [8] 0.038 | [9] -0.041 | [10] 0.141 | [11] 0.066 | [12] -0.196 | [13] -0.003 | [14] -0.006 | [20] 0.016 | [17] 0.01

NEPRO (UniProt Q6NW34)
inactive: [1] 0.065 | [2] -0.035 | [3] 0.086 | [4] -0.053 | [5] -0.001 | [18] 0.158 | [19] -0.015 | [6] 0.02 | [7] -0.026 | [8] 0.018 | [10] 0.02 | [11] 0.007 | [12] 0.089 | [13] -0.013 | [14] -0.17 | [15] 0.007 | [16] 0.038 | [20] -0.071 | [17] 0.046

NDUFS2 (UniProt O75306)
inactive: [1] -0.001 | [2] 0.015 | [3] -0.003 | [4] -0.014 | [5] 0.002 | [18] 0.004 | [19] 0.042 | [6] 0.01 | [7] -0.019 | [8] 0.013 | [9] 0.031 | [10] 0.035 | [11] -0.001 | [12] -0.027 | [13] -0.018 | [14] -0.005 | [15] -0.004 | [16] -0.048 | [20] 0.021 | [17] -0.008

NFKBIA (UniProt P25963)
inactive: [1] 0.187 | [2] -0.002 | [5] 0.237 | [18] 0.022 | [19] -0.09 | [6] -0.006 | [8] -0.062 | [9] 0.18 | [10] 0.064 | [11] -0.007 | [13] -0.122 | [20] -0.132 | [17] 0.019

NDRG3 (UniProt Q9UGV2)
inactive: [1] -0.017 | [2] -0.003 | [3] 0.012 | [4] 0 | [5] 0.003 | [18] 0.01 | [19] -0.005 | [6] 0.018 | [7] -0.015 | [8] -0.001 | [9] -0.006 | [10] 0.005 | [11] 0.011 | [12] 0.003 | [13] 0.011 | [14] 0.006 | [15] 0.049 | [16] -0.052 | [20] -0.024 | [17] 0.003

NEXN (UniProt Q0ZGT2)
inactive: [1] 0.173 | [2] -0.008 | [3] 0.257 | [4] 0.057 | [5] 0.066 | [18] -0.012 | [19] -0.065 | [7] 0.101 | [8] -0.017 | [9] 0.073 | [10] 0.218 | [11] 0.101 | [12] -0.132 | [13] 0.051 | [14] 0.075 | [15] -0.231 | [16] 0.209 | [20] 0.026

NLRC3 isoform 2 (UniProt Q7RTR2)
inactive: [1] -0.066 | [2] 0.024 | [3] -0.015 | [4] -0.234 | [5] -0.029 | [18] -0.108 | [19] 0.014 | [6] 0.247 | [7] 0.32 | [8] 0.024 | [9] -0.044 | [10] 0.06 | [11] 0.088 | [12] -0.12 | [13] 0.034 | [14] -0.06 | [20] -0.02 | [17] 0.026

NIPA1 (UniProt Q7RTP0)
inactive: [1] 0.04 | [2] 0.034 | [3] 0.033 | [4] -0.04 | [5] 0.018 | [18] 0.056 | [6] -0.04 | [7] 0.036 | [8] 0.016 | [9] 0.114 | [10] 0.021 | [11] -0.017 | [13] 0.078 | [14] 0.022 | [15] 0.165 | [16] 0.241 | [17] 0.101

NDFIP1 (UniProt Q9BT67)
inactive: [1] 0.119 | [2] 0.052 | [3] 0.077 | [4] 0.001 | [5] -0.059 | [18] 0.086 | [19] -0.252 | [6] -0.004 | [7] -0.079 | [8] 0.189 | [9] 0.032 | [10] 0.071 | [11] 0.02 | [13] 0.014 | [14] -0.091 | [15] 0.141 | [16] -0.015 | [20] 0.112 | [17] 0

NDUFA4 (UniProt O00483)
inactive: [1] 0.007 | [2] 0.199 | [3] 0.022 | [4] 0.03 | [5] -0.068 | [18] -0.045 | [19] -0.036 | [6] -0.058 | [7] 0.009 | [8] -0.199 | [9] -0.009 | [10] 0.245 | [11] 0.058 | [12] 0.011 | [13] 0.122 | [14] 0.085 | [15] 0.067 | [16] -0.134 | [20] 0.018 | [17] -0.063

NECAP2 (UniProt Q9NVZ3)
inactive: [1] -0.005 | [2] -0.003 | [3] -0.014 | [4] 0.023 | [5] 0.023 | [18] -0.004 | [19] 0.001 | [6] 0.032 | [7] -0.024 | [8] 0.008 | [9] -0.038 | [10] -0.005 | [11] -0.011 | [12] 0.073 | [13] 0.04 | [14] -0.022 | [15] 0.044 | [16] -0.002 | [20] -0.015 | [17] -0.042

NFKBIB (UniProt Q15653)
inactive: [1] -0.034 | [2] -0.037 | [3] 0.048 | [4] -0.008 | [5] -0.029 | [18] -0.012 | [19] 0 | [6] 0.033 | [7] 0.06 | [8] -0.037 | [9] -0.058 | [10] 0.041 | [11] -0.059 | [12] 0.099 | [13] 0.068 | [14] -0.054 | [16] 0.096 | [20] -0.013 | [17] -0.002
active: [15] -0.535

Random excerpt: two records from the list
NFKBIB (UniProt Q15653)
inactive: [1] -0.034 | [2] -0.037 | [3] 0.048 | [4] -0.008 | [5] -0.029 | [18] -0.012 | [19] 0 | [6] 0.033 | [7] 0.06 | [8] -0.037 | [9] -0.058 | [10] 0.041 | [11] -0.059 | [12] 0.099 | [13] 0.068 | [14] -0.054 | [16] 0.096 | [20] -0.013 | [17] -0.002
active: [15] -0.535

NECAP2 (UniProt Q9NVZ3)
inactive: [1] -0.005 | [2] -0.003 | [3] -0.014 | [4] 0.023 | [5] 0.023 | [18] -0.004 | [19] 0.001 | [6] 0.032 | [7] -0.024 | [8] 0.008 | [9] -0.038 | [10] -0.005 | [11] -0.011 | [12] 0.073 | [13] 0.04 | [14] -0.022 | [15] 0.044 | [16] -0.002 | [20] -0.015 | [17] -0.042

Next part.

NDUFS5 (UniProt O43920)
inactive: [1] 0.029 | [2] 0.013 | [3] -0.011 | [4] -0.025 | [5] -0.017 | [18] 0.001 | [19] 0.006 | [6] -0.008 | [7] -0.021 | [8] -0.009 | [9] 0.002 | [10] 0.035 | [11] -0.061 | [12] 0.019 | [13] -0.005 | [14] -0.023 | [15] 0.016 | [16] -0.038 | [20] 0.018 | [17] -0.027

NES (UniProt P48681)
inactive: [1] 0.056 | [2] 0.017 | [3] 0.02 | [4] -0.012 | [5] -0.028 | [18] 0.006 | [19] 0.009 | [6] 0.022 | [7] -0.01 | [8] -0.02 | [9] -0.021 | [10] 0.009 | [11] 0.042 | [12] -0.017 | [13] 0.021 | [14] -0.016 | [15] 0.037 | [16] 0.009 | [20] 0.044 | [17] -0.008

— the supplement of paper PMC10849652
